Assay results taken from patent US20210277112A1 (BIOND BIOLOGICS, published 2021).
Results are given in words; binding and its absence hold for the method and conditions named. Some entries that bind do so weakly or less than the wild type.

Protein sequences, listed by entry. Tags and fused reporters are not part of them. Lines headed by an entry give the natural chain unless they say otherwise; changes in a name come on top.
UniProt Q8NHL6: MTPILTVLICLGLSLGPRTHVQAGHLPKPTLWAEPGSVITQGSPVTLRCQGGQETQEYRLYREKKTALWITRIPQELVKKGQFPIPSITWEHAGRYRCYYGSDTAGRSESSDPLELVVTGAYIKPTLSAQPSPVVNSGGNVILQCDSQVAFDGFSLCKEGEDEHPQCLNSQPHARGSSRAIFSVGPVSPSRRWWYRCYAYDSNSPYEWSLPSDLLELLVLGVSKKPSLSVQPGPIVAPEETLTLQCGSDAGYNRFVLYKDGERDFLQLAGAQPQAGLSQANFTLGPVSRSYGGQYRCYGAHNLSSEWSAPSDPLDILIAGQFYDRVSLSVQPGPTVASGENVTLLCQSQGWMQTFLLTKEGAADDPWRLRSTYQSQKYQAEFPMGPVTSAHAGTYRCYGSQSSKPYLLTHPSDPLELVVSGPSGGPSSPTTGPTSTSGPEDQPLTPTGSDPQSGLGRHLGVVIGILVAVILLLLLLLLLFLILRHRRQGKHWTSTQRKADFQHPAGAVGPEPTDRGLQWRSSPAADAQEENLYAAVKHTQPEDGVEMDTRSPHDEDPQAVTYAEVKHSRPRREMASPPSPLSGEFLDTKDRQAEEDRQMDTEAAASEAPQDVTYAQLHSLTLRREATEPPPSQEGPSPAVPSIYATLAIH

B1: 15G8 (original hybridoma-derived murine anti-ILT2 antibody) (antibody, V domains shown)
VH: DVQLQGSGPGLVKPSQSLSLTCSVTGYSITSGYYWNWIRQFPGNKLEWMGYISYDGSNNYNPSLKNRISITRDTSKNQFFLKLNSVTSEDTATYYCAHGYSYYYAMDCWGQGTSVTVSS
VL: DIQMTQTTSSLSASLGDRVTISCRTSQDISNYLNWYQQKPDGTVKLLISYTSRLHSGVPSRFSGSGSGTDYSLTISNLEQEDIATYFCQQGNTLPTFGSGTKLEIK
notes: also called 15G8 antibody
B2: chimeric 15G8 (antibody, V domains shown)
VH: DVQLQGSGPGLVKPSQSLSLTCSVTGYSITSGYYWNWIRQFPGNKLEWMGYISYDGSNNYNPSLKNRISITRDTSKNQFFLKLNSVTSEDTATYYCAHGYSYYYAMDCWGQGTSVTVSS
VL: DIQMTQTTSSLSASLGDRVTISCRTSQDISNYLNWYQQKPDGTVKLLISYTSRLHSGVPSRFSGSGSGTDYSLTISNLEQEDIATYFCQQGNTLPTFGSGTKLEIK
notes: Constant regions not described; also called chimeric murine 15G8
B3: humanized 15G8 (alanine variant) (antibody, V domains shown)
VH: DVQLQGSGPGLVKPSETLSLTCSVTGYSITSGYYWNWIRQFPGKKLEWMGYISYDGSNNYNPSLKNRITISRDTSKNQFSLKLNSVTAADTATYYCAHGYSYYYAMDAWGQGTSVTVSS
VL: DIQMTQSPSSLSASVGDRVTITCRTSQDISNYLNWYQQKPGKAVKLLISYTSRLHSGVPSRFSGSGSGTDYTLTISSLQPEDFATYYCQQGNTLPTFGQGTKLEIK
notes: also called 15G8 humanized antibody; humanized antibody 15G8

How the values were obtained:
[1] = target: T1, ILT2/CD3z chimera on BW5417.3 cells (human; mouse, UniProt P24161 31-164, limits assumed); test: flow cytometry on BW cells transfected with human ILT2, PE
T1 construct: domain: trans-membrane and cytoplasmic residues; Expressed on the surface of the mouse BW T cell line; also called BW-ILT2; BW/ILT2z

[2] = target: T1, ILT2/CD3z chimera on BW5417.3 cells; test: flow cytometry on BW cells transfected with ILT2
[3] = target: T1, ILT2/CD3z chimera on BW5417.3 cells; test: flow cytometry titration on BW cells transfected with human ILT2, y axis FAB
[4] = target: recombinant human ILT2-Fc conjugated with biotin (human) (UniProt Q8NHL6); test: flow cytometry blocking assay: ILT2-biotin binding to cells expressing HLA-G
[5] = target: T1, ILT2/CD3z chimera on BW5417.3 cells; test: flow cytometry on BW cells transfected with human ILT2

Binder | binding [1] | binding [2] | binding [3] | binding [4] | binding [5]
B1 | binds | binds | – | – | –
B2 | – | – | binds | binds | binds
B3 | – | – | binds | – | binds
